From patent US20100311643A1, “USE OF GLP-1 AS A THERAPEUTIC AGENT” (priority 2007, published 2010)
At least one peptide structure holds a part that was inferred or is arguable (an end, a ring closure or a residue).

What was measured:
TNF alpha = TNF alpha production assay (LPS-stimulated macrophages, ELISA); type: cell-based, human; conditions: PBMC-derived macrophages, peptide 10 micrograms per ml, lipopolysaccharide 200 ng/ml, overnight
[1] = system: Human Peripheral Blood Mononuclear Cells (PBMC); assay: T cell proliferation assay (PHA, 3H-thymidine); conditions: peptide 10 micrograms per ml, 3H-thymidine incorporation
[2] = system: Primary Human endothelial cells (HUVEC); assay: Endothelial cell migration assay; type: cell-based; conditions: peptide 10 micrograms per ml, 22 hours
spleen cells = assay: Th1/Th2 cytokine profiling assay (Ovalbumin restimulation, CBA kit); type: cell-based, Balb/c mice; conditions: peptide 10 micrograms per ml; Ovalbumin 10 micrograms/ml restimulation; 72 hours
[3] = system: Human Peripheral Blood Mononuclear Cells (PBMC); assay: B cell proliferation assay (SAC plus IL-2, 3H-thymidine); type: cell-based; conditions: peptide 10 micrograms per ml, 3H-thymidine incorporation
A549 cells = assay: Propidium iodide cell cycle assay; type: cell-based, human; conditions: peptide 10 micrograms per ml, 24 hours, FACS
HUVEC = assay: Endothelial tube formation assay; type: cell-based, human; conditions: peptide 10 micrograms per ml, 20 hours, average tubule length
RAW 264.7 cells = assay: Phagocytosis assay (Fluorescein-labeled E. coli, flow cytometry); type: cell-based, mouse; conditions: peptide 10 micrograms per ml, 30 min preincubation, 60 min ingestion

For CC[C@H](C)[C@H](NC(=O)[C@H](Cc1ccccc1)NC(=O)[C@H](CCC(=O)O)NC(=O)[C@H](CCCCN)NC(=O)[C@H](C)NC(=O)[C@H](C)NC(=O)[C@H](CCC(N)=O)NC(=O)CNC(=O)[C@H](CCC(=O)O)NC(=O)[C@H](CC(C)C)NC(=O)[C@H](Cc1ccc(O)cc1)NC(=O)[C@H](CO)NC(=O)[C@H](CO)NC(=O)[C@@H](NC(=O)[C@H](CC(=O)O)NC(=O)[C@H](CO)NC(=O)[C@@H](NC(=O)[C@H](Cc1ccccc1)NC(=O)[C@@H](NC(=O)CNC(=O)[C@H](CCC(=O)O)NC(=O)[C@H](C)NC(=O)[C@H](Cc1c[nH]cn1)NC(=O)[C@H](CCCNC(=N)N)NC(=O)[C@H](CCC(=O)O)NC(=O)[C@H](Cc1ccccc1)NC(=O)[C@H](CCC(=O)O)NC(=O)[C@H](CC(=O)O)NC(=O)[C@@H](N)Cc1c[nH]cn1)[C@@H](C)O)[C@@H](C)O)C(C)C)C(=O)N[C@@H](C)C(=O)N[C@@H](Cc1c[nH]c2ccccc12)C(=O)N[C@@H](CC(C)C)C(=O)N[C@H](C(=O)N[C@@H](CCCCN)C(=O)NCC(=O)N[C@@H](CCCNC(=N)N)C(=O)NCC(=O)O)C(C)C [GLP-1], the “% of LPS induction” value (TNF alpha) was 109.9%, the “% of PHA induced control” value [1] was 96.0% and the “% inhibition of migration” value [2] was 65%. For the same molecule, the “IFNγ spleen cells; TH1 response (% of control)” value (spleen cells) was 78.0 % of control, the “IL-2 spleen cells (% of control)” value (spleen cells) was 163.4 % of control and the “IL-4 spleen cells; TH2 response (% of control)” value (spleen cells) was 135.2 % of control. For the same molecule, the “IL-5 spleen cells; TH2 response (% of control)” value (spleen cells) was 121.7 % of control, the “TNF-a spleen cells; TH1 response (% of control)” value (spleen cells) was 145.1 % of control and the “% of SAC/IL2 induced control” value [3] was 110.8%. The “Cell cycle analysis G0/G1” value (A549 cells) was 53.3, the “Cell cycle analysis G2/M” value (A549 cells) was 13.5 and the “Cell cycle analysis S” value (A549 cells) was 33.2. For the same molecule, the “% inhibition of tube formation” value (HUVEC) was 25% and the “% of control phagocytosis” value (RAW 264.7 cells) was 100.0%.
